Assay results published in PMC8617094.
No constants are given. Whether binding was seen depends on the method and setting. In cells and extracts the contact can be indirect. These calls come from enrichment with a bait or labelling near it, and not all partners need be listed.

B1: GTF-2H5 (C. elegans TTDA ortholog) (protein, UniProt Q9N390 1-71)
chain: MVNVKKGVLVTSDPAFRQLLIHLDDSRQLGSKFIVRELDDTHLFIEKEIVPMLENKVEQIMENMNPEAVDK
B2: GTF-2H2C (protein, UniProt P34567 1-376)
chain: MDDDEQKGYTWEAGYAEGLNINDVLVEDEGGSIEKSIAKYVADSKRKARLTKRPERIRLGIMRHVMIVIDCSRFMTSKAMPPSRFVVVMKALQTFLDRFFEQNPIAQIGLITCKDRKADRLTMMTGNIRVLKESLNTLTEAFCGGDFSLQNALQLACANLKGMPGHVSREVVLVISALSTIDPGNIYSTIETMKRMNIRCSAIGLSAEMFVCKEMAKATKGEYSVALDPDHLQLLFSKHTLPPSSAKSSECNAIHVGFPHHELITTRSFCVCHPDTKPISSRGFICTQCGARHCSIPAECPVCKLTLVAAPQLARAFRHLQPLSAFEQIEVTRGFCYACETRLSGEGFRCGSCQLVFCLDCDTLLHESLHVCPGCN
B3: CDK-7 (protein, UniProt G5EFV5 1-330)
chain: MSRRYDTIKHLGEGQFANVYLAQDLESGECVAIKKIKLGSREEAKDGINRTAIREIKLLKEIHHDNIIGLRDVIGHRTSIQLVFDFMDTDLEHVIKDKEIILMPAHIKNITMQMLLGLEFLHVHWILHRDLKPNNLLMNKMGRVKLTDFGLARFFGSPNRNYTHQVVTRWYRAPELLFGARSYGVGIDIWSVGCIIAELLLRNPIFPGESDIDQLVKIFNILGCPTPETWPNMTEMNSYVIIKPQTEYMALNYYFSAAPQDLLDLMAGMWTFDPIKRLTCTQSLQMEYFRTQPFCCLDEELPLPKKQQPQKRSRRLDDDGTRPVRRLNFD

molecular target: AG::GTF-2H1 (AID::GFP-tagged GTF-2H1, C. elegans ortholog of TFIIH subunit GTF2H1/p62) (C. elegans); assay: affinity purification with mass spectrometry; GFP-TRAP-A agarose IP of AG::GTF-2H1 from sonicated, Benzonase-treated lysates of C. elegans (wild type and gtf-2H5(tm6360) animals); IP buffer 30 mM HEPES pH 7.5, 130 mM NaCl, 1 mM MgCl2, 0.5% Triton X-100; 2 h at 4 °C; LC-MS/MS; three replicates

binding, binds:
B1
B2
B3
